These are yes or no findings as the source states them, for the method shown. Binding seen in cells or lysates may run through a third protein. Binding can be weak; no strength is given. Where a sequence is shown, tags or fusion partners need not be part of it.

Assay [1] has as its target Pmc4-Pk (expressed from its endogenous locus in fission yeast) (Schizosaccharomyces pombe (fission yeast)). Description: co-IP.
For assay [2], the target named is GST-Pmc4 (full-length Pmc4) (Schizosaccharomyces pombe (fission yeast)). Nature of the assay: pull-down + SEC.

B1: Cnd1-Myc (wild type, expressed from its endogenous locus in fission yeast) (protein, UniProt O94679 1-1158)
chain: MSLDLLSRLKKYIHDEENSDLDSIYAECENAGLTAVVNDVIDTLLLGTSSCFDEDCLEKLFAICSHFADLSSSVRNKVYDLLTSNISSESAILEDMISANATDFTVPQTNLETTGIAFQLTVNSLSSSNQLSVIRSSTNTVKGRKKNPTTNSNWNGISHVNALLDAIITLFQKKLSRVWTTSSERDMFLSLFLKPIYTLMESEINIKNASFRSRLFNIIGLAVQFHNHTTAAETNIIQNLQYFEHLSEYAADLVHIVTVQFNSVTLAEGIIRTLCSLEFNDNDVKGPKQVALFLVRLSSLIPNLCLKQLTQLVKLLDSESYTLRCAIIEVLANVVIDQIHDEAQNEMSESVPATVQSLMDLLSERLLDISPYCRTKVLHVFIKIFDLPIKYPRKRQEIAELVIRCLQDRSSHVRRNAIKLFSKLLTTHPFSVMHNGLLTRNIWEKGLSIIEEQLNSLQPKQQEKVVDSELEVDENLLEDATMIQDDESHEGESHLENSLSEYVDSVPAEEIVKVNLTKRFYLEALQYIDIVEAGAKIISQLLFAKNKSEVIESMDFFVFCNSFGISSSKLYIKKMIHLIWVKGTSDEGNNIQNHVLSCYKTLFFEPPPNSGTNEAANYIARNLISLTYDASLAELTSLEQMLCILMKDGYFSHLVITKLWQVYSYQKKDISRTQRRGSIIVIGMLALGNTDVVMQGLDHLIQIGLGPPGLEDLVLARYTCIAIKRIGKDASGSSNINFPNSHTLCQKLCMLLLRPSFSEEWFGLEEQAIEAIYAVAKHPDELCTNIILLLTKQLFKPSNHENTTSNDDHAMDEDLDDSPEEETLKDEEEIGIRLAHLIFLVGHVAIKQLVYIEYCEAEFKRRKADAERLAVQNSNNPINGQETSEYDLITGTSEDDFSEAMTFIRERELLYGENSLLSRFAPLVVELCSNHKSHNNQSLLLAASLTLSKFMCLSNNFCMEHLPLLITILEKCDNPIIRNNLVIGLADLTVCFNHFIDEISEYLYRRLMDEESSVKKTCFMTLAFLILAGQIKVKGQLGIMARSLEDEDARISDLARMFFTDFAAKDNSVYNNFIDIFSVLSRSAEEQDEDDAKFKRIIRFLTSFIEKERHTKQLAERLAARLDRCKTQRQWDHVVYALSLLPHKADNIQKLIDDGYHE
Take B1: the binding entry in assay [1] is on record as “binds”.

B2: His-Cnd1 (full-length Cnd1) (protein, UniProt O94679 1-1158)
chain: B1 chain
As to B2, in assay [2], the binding entry is given as “binds”.

The record behind these values is article doi:10.1101/2024.06.26.600663.
